In article PMC6940354, “Comparative Assessment of the New PDE7 Inhibitor – GRMS-55 and Lisofylline in Animal Models of Immune-Related Disorders: A PK/PD Modeling Approach” (Pharmaceutical Research, 2020):

These compounds were tested on collagen-induced arthritis (CIA) in female Lewis rats (assay: Collagen-induced arthritis in rats, paw swelling, PK/PD/DIS progression model). Conditions: once daily from day 20: GRMS-55 50 mg kg^−1 IP, rolipram 10 mg kg^−1 IP, (±)-LSF 80 mg kg^−1 SC.
Format: in vivo, rat
Experimental: The emulsion of collagen was prepared according to the Protocol for the Successful Induction of Collagen-Induced Arthritis (CIA) in Rats (Chondrex Inc., 2015). Porcine type II collagen dissolved in 0.05 M acetic acid was emulsified with incomplete Freund’s adiuvant (Sigma Aldrich, Germany) using an Omni TH Homogenizer (Omni International, Inc., USA) consisting of a blade with 5 mm diameter. The collagen solution was previously mixed with IFA at a low speed for 1 min and then at the highest speed for 2 min. Then emulsion was being cooled for 5 min in an ice water bath. The emulsification process was repeated 3 times to obtain a stiff emulsion. The emulsion was then transferred into a Hamilton glass syringe, kept at 4°C, and used within 2 h.
At a day 0 of the experiment animals were subcutaneously (SC) injected at the base of the tail with 200 μL of the emulsion using a 27 gauge × 5/8″ needle and Hamilton syringe. At day 7 after the initial immunization, a booster injection with 100 μL of emulsion was performed. Ninety % of rats developed symptoms of disease (paw swelling >150% of day 0) at day 20 of the experiment. At this day, diseased animals were randomly divided into five groups (n = 6). […]
Paw edema of arthritic rats was assessed as swelling of the rat hind paws. […] Each hind leg was measured at two sections, i.e., paw and ankle, and each section was measured at two places (side-to-side and top-to-bottom). The area of each section (elliptical in shape) was calculated from the following equation:2 Area=π·a·b/4 where (a) is side-to-side diameter of the ellipse and (b) is top-to-bottom diameter of the ellipse. […] Each of these measures was normalized to the same hind paw area measured at day 0 of the experiment (Areazero) to reduce variation in the disease progression resulting from differences in paw size of each rat. Relative paw swelling (Paw) was calculated according to the equation:3 Paw=Areaoverall/Areazero
Paw size was measured at days 0, 5, 7, 11, 15, 18, 20, 22, 26, 30, 33, and 36 after the first immunization. […]

Structure (SMILES) | τ, mean transit time, Final estimate (CV%)
CC(O)CCCCn1c(=O)c2c(ncn2C)n(C)c1=O (racemic) [(±)-LSF, lisofylline] | 0.371 (19.7) day
Cn1c(=O)c2c(nc(NCCc3ccccc3)n2CCCC(=O)NN=Cc2ccccc2O)n(C)c1=O [GRMS-55, 4-(1,3-Dimethyl-2,6-dioxo-8-(phenethylamino)-2,3,6,7-tetrahydro-1H-purin-7-yl)-N′-(2-hydroxybenzylidene)butanehydrazide] | 0.257 (16.8) day
COc1ccc(C2CNC(=O)C2)cc1OC1CCCC1 (stereo not drawn) [Rolipram, rolipram] | 0.257 (16.8) day
